Data reported in paper PMC4287440.
No constants are given. Whether binding was seen depends on the method and setting. Binding seen in cells or lysates may run through a third protein. Some binding calls cover weakened binding; strength is not graded here.

The chains behind the UniProt entries cited, without tags or fusion partners.
UniProt P47035: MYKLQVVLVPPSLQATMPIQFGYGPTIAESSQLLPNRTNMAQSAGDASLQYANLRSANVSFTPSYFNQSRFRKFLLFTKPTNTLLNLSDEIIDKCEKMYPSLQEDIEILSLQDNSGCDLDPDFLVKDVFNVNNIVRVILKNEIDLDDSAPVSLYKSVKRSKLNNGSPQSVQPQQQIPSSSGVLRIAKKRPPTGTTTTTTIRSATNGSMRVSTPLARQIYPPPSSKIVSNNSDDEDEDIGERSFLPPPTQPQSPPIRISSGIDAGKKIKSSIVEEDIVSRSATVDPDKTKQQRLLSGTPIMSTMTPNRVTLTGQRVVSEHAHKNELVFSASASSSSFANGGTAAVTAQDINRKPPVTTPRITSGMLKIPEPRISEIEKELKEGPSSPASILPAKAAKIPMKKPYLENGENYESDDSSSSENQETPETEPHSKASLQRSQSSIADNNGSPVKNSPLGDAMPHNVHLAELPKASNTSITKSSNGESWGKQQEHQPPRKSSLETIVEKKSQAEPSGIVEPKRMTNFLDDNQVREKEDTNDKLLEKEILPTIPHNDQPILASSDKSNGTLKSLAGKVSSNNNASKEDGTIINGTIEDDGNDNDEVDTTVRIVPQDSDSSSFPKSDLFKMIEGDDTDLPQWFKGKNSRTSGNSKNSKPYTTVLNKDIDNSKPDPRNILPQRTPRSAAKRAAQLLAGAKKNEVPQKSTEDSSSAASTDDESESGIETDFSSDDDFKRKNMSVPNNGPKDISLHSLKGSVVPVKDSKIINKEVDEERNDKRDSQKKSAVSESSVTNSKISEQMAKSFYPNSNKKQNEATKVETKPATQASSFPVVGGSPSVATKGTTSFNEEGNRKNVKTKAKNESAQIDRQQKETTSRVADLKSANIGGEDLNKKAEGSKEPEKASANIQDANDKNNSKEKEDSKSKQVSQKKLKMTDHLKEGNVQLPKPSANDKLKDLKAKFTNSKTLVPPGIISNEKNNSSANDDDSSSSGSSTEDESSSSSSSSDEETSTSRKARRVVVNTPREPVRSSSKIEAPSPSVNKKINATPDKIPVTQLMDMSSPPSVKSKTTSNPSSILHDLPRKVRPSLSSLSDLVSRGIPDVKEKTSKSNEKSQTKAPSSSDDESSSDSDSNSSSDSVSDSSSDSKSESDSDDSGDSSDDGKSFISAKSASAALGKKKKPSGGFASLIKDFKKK

T1: Nur1-Pk (S. cerevisiae) (UniProt Q12066)
T1 sequence: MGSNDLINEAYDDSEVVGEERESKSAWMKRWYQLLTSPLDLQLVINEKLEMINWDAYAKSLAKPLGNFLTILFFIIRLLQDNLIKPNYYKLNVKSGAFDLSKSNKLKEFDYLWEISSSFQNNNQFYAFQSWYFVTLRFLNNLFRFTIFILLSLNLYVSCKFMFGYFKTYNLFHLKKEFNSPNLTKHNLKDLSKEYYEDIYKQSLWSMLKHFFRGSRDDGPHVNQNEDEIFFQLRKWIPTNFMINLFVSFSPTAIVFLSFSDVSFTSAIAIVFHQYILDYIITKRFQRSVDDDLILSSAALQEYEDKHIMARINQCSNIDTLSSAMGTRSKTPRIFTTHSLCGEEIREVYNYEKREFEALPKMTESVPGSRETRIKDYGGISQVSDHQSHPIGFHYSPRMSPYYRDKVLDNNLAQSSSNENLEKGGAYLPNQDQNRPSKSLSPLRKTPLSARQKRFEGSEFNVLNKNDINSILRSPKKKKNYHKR


Assays:
Net1-myc (S. cerevisiae) = Net1-myc (S. cerevisiae) (UniProt P47035); assay: co-IP; Net1-myc immunoprecipitated with α-myc antibody on Protein A Dynabeads from yeast cell extracts in EBXG buffer (50 mM HEPES pH 8.0, 100 mM KCl, 2.5 mM MgCl2, 10% glycerol, 0.25% Triton X-100, 1 mM DTT); extracts taken at intervals through a synchronous cell cycle after G1 release; Nur1-Pk examined by Western blot
Nur1-Pk (S. cerevisiae) = biological target: T1, Nur1-Pk (S. cerevisiae); assay: co-IP; Nur1 immunoprecipitated from yeast cell extracts throughout the cell cycle and Cdc14 detected in the immunoprecipitates; no figure cited

Row | binding (Net1-myc (S. cerevisiae)) | binding (Nur1-Pk (S. cerevisiae)) | Binder
1 | binds |  | Nur1-Pk (protein, UniProt Q12066 1-484) MGSNDLINEAYDDSEVVGEERESKSAWMKRWYQLLTSPLDLQLVINEKLEMINWDAYAKSLAKPLGNFLTILFFIIRLLQDNLIKPNYYKLNVKSGAFDLSKSNKLKEFDYLWEISSSFQNNNQFYAFQSWYFVTLRFLNNLFRFTIFILLSLNLYVSCKFMFGYFKTYNLFHLKKEFNSPNLTKHNLKDLSKEYYEDIYKQSLWSMLKHFFRGSRDDGPHVNQNEDEIFFQLRKWIPTNFMINLFVSFSPTAIVFLSFSDVSFTSAIAIVFHQYILDYIITKRFQRSVDDDLILSSAALQEYEDKHIMARINQCSNIDTLSSAMGTRSKTPRIFTTHSLCGEEIREVYNYEKREFEALPKMTESVPGSRETRIKDYGGISQVSDHQSHPIGFHYSPRMSPYYRDKVLDNNLAQSSSNENLEKGGAYLPNQDQNRPSKSLSPLRKTPLSARQKRFEGSEFNVLNKNDINSILRSPKKKKNYHKR
2 |  | binds | Cdc14 (enzyme, UniProt Q00684 1-551) MRRSVYLDNTIEFLRGRVYLGAYDYTPEDTDELVFFTVEDAIFYNSFHLDFGPMNIGHLYRFAVIFHEILNDPENANKAVVFYSSASTRQRANAACMLCCYMILVQAWTPHQVLQPLAQVDPPFMPFRDAGYSNADFEITIQDVVYGVWRAKEKGLIDLHSFNLESYEKYEHVEFGDFNVLTPDFIAFASPQEDHPKGYLATKSSHLNQPFKSVLNFFANNNVQLVVRLNSHLYNKKHFEDIGIQHLDLIFEDGTCPDLSIVKNFVGAAETIIKRGGKIAVHCKAGLGRTGCLIGAHLIYTYGFTANECIGFLRFIRPGMVVGPQQHWLYLHQNDFREWKYTTRISLKPSEAIGGLYPLISLEEYRLQKKKLKDDKRVAQNNIEGELRDLTMTPPSNGHGALSARNSSQPSTANNGSNSFKSSAVPQTSPGQPRKGQNGSNTIEDINNNRNPTSHANRKVVIESNNSDDESMQDTNGTSNHYPKVSRKKNDISSASSSRMEDNEPSATNINNAADDTILRQLLPKNRRVTSGRRTTSAAGGIRKISGSIKK
